Results from PubChem BioAssay AID587 (National Center for Advancing Translational Sciences (NCATS), 2007).
In all, about 59,000 compounds went through this assay and about 35 (0.06%) were called active. This list was built around the results that the source calls inconclusive (neither active nor inactive); the mix of calls is not that of the screen. No stated cut-off is given here; in the data, active means max dye-equivalent concentration above about 10 nM; inconclusive means between about 1.1 nM and that limit; inactive means weaker than that.

experiment: qHTS Assay for Spectroscopic Profiling in Texas Red Spectral Region; details: Compound fluorescence, Texas Red channel, 547/618 nm; hits give high values
Outline: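 Spectral interference profiling: each compound concentration's relative fluorescence, read with a 547 nm excitation and 618 nm emission filter pair, was normalized to a per-plate Texas Red standard curve.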

Compound | max dye-equivalent concentration
Clc1ccc2c(N3CCC(CCC4CCN(c5ncnc6cc(Cl)ccc56)CC4)CC3)ncnc2c1 | inconclusive: 2.2 nM
Cc1cc(C)n(-c2ccc3cccc(NS(C)(=O)=O)c3n2)n1 | inconclusive: 2.1 nM
CCCCCCCCCCCCCCCCOC[C@@H](COCC(F)(F)F)OP(=O)(O)OCO | inactive
CN(CCC(=O)Nc1ccc2c(c1)OCO2)Cc1ccccc1 | inconclusive: 1.2 nM
COC(=O)CCN(C(=O)C1C2CC3CC(C2)CC1C3)c1ccccn1 (stereo not given) | inconclusive: 1.1 nM
COCCN(CCOC)C(=O)c1cc2sc3ccccc3c2s1 | inconclusive: 2.5 nM
COc1cc(C2C(C#N)=C(N)Oc3cc(C)n(Cc4ccccn4)c(=O)c32)cc2c1OCO2 (stereo not given) | inconclusive: 1.5 nM
COc1cc(-c2nc(S(=O)(=O)c3ccc(Cl)cc3)c(N3CCOCC3)o2)cc(OC)c1OC | inconclusive: 1.6 nM
COCc1[nH]nc2c1C1(C(=O)Nc3ccc(F)cc31)C(C#N)=C(N)O2 (stereo not given) | inconclusive: 1.6 nM
COc1cccc2c(C)c(C(=O)O)[nH]c12 | inconclusive: 1.4 nM
Cc1cc(C)nc(-n2nc(C)cc2NC(=O)c2cc3ccccc3oc2=O)n1 | inconclusive: 1.6 nM
CCCCCCn1c(CN2CCN(Cc3ccccc3)CC2)nc2c1c(=O)n(C)c(=O)n2C | inconclusive: 1.1 nM
CC1CCN(c2ccc(C(=O)O)cc2N)CC1 | inconclusive: 1.1 nM
CCOc1cc(-c2c(C)c(C)nc(N)c2C#N)ccc1O | inconclusive: 1.1 nM
CCCN(Cc1cc2cc(C)ccc2[nH]c1=O)S(C)(=O)=O | inconclusive: 1.1 nM
COc1ccc(N2CCN(CCNC(=O)C3CCN(S(=O)(=O)c4cccs4)CC3)CC2)cc1 | inconclusive: 1.3 nM
CC(C)OC(=O)CSc1nnc(-c2ccc(Cl)cc2)n1N | inconclusive: 1.2 nM
CC(C)c1ccc(-c2nnn(CCC(=O)O)n2)cc1 | inconclusive: 1.5 nM
CCOC(=O)/C=c1\s/c(=C\c2ccc3c(c2)OCCO3)c(=O)n1CC(=O)NCC1CCCO1 (stereo not given) | inconclusive: 2.7 nM
COc1ccc(CCNS(=O)(=O)c2cccc(F)c2)cc1OC | inconclusive: 2 nM
COc1ccccc1Nc1nc(N)nc(CN2CCN(c3ccccc3F)CC2)n1 | inconclusive: 1.1 nM
CCNc1ncc2nc(CCc3ccccc3)c(=O)n(CCOC)c2n1 | inactive

Compound | max dye-equivalent concentration
O=C(NCC1CCCO1)c1ccccc1-c1nc(-c2ccccc2)no1 (stereo not given) | inconclusive: 1.4 nM
CC(=O)Oc1ccc(N2C(=O)CCC2=O)cc1 | inconclusive: 2.1 nM
CC(=O)[C@]1(O)CC[C@@H]2[C@H]3C[C@@H](C)C4=CC(=O)CC[C@@]4(C)[C@H]3[C@@H](O)C[C@]21C | inconclusive: 1.8 nM
CNC(=O)NC(=O)CSc1ncc(C(F)(F)F)cc1Cl | inconclusive: 1.1 nM
CC(=O)Nc1ccccc1OCc1nnc(-c2cccs2)o1 | inconclusive: 1.4 nM
CCOC(=O)Cc1csc(NC(=O)CSc2nnc(-n3nc(C)cc3C)c3ccccc23)n1 | inactive
O=C(NCCN1CCOCC1)c1cccs1 | inconclusive: 1.3 nM
COc1ccc2nc(N3CCCC3)c(C#N)cc2c1 | inactive
C[C@@H]1c2ccccc2Cn2cc3c(c21)C(=O)c1cccc(OP(=O)(O)OCc2ccccc2)c1C3=O | inactive
CCOc1cc(C2c3c(oc4cc(C)c(Cl)cc4c3=O)C(=O)N2Cc2ccco2)ccc1O (stereo not given) | inconclusive: 1.2 nM
CCCc1nc(S(=O)(=O)Cc2ccc(Cl)cc2Cl)n[nH]1 | inconclusive: 1.4 nM
Cc1ccc(C(=O)C2=C(O)C(=O)N(CCN(C)C)C2c2ccccn2)o1 (stereo not given) | inconclusive: 1.3 nM
Cc1ccc(NC(=O)CSc2nc3nc(C)cc(C)c3c(=O)[nH]2)cc1 | inconclusive: 1.1 nM
CC(C)N1CCN(c2ccc(OC[C@@H]3CO[C@@](Cn4cncn4)(c4ccc(Cl)cc4Cl)O3)cc2)CC1 | inconclusive: 1.3 nM
COc1ccc2oc(C(=O)C3CC3)c(N)c2c1 | inconclusive: 1.3 nM
COc1ccc(-c2nnc(-c3ccc(Br)o3)o2)cc1OC | inconclusive: 1.4 nM
C=CCN1CC(c2nc3ccccc3n2CCOc2ccccc2)CC1=O (stereo not given) | inconclusive: 1.1 nM
CC(=O)N1CCC(C(=O)Nc2ccccc2)(N(Cc2ccccc2)C(=O)c2cccnc2)CC1 | inconclusive: 1.3 nM
Cc1ccc(NC(=O)CCSc2nnc(-c3ccco3)o2)cc1 | inconclusive: 1.4 nM
CCCCSc1nnc2n(CCc3ccccc3)c(=O)c3c4c(sc3n12)COC(C)(C)C4 | inconclusive: 1.4 nM
CCOCCCn1c(=S)[nH]c2cc(C(=O)NCCN(CC)CC)ccc2c1=O | inconclusive: 2.2 nM
Cc1ccccc1C(NC(N)=O)c1ccccc1 (stereo not given) | inconclusive: 2.4 nM

Molecules shown so far that contain a carbonyl joined to an NH by a bond outside any ring (14):
Compound | max dye-equivalent concentration
CN(CCC(=O)Nc1ccc2c(c1)OCO2)Cc1ccccc1 | inconclusive: 1.2 nM
Cc1cc(C)nc(-n2nc(C)cc2NC(=O)c2cc3ccccc3oc2=O)n1 | inconclusive: 1.6 nM
COc1ccc(N2CCN(CCNC(=O)C3CCN(S(=O)(=O)c4cccs4)CC3)CC2)cc1 | inconclusive: 1.3 nM
CCOC(=O)/C=c1\s/c(=C\c2ccc3c(c2)OCCO3)c(=O)n1CC(=O)NCC1CCCO1 (stereo not given) | inconclusive: 2.7 nM
O=C(NCC1CCCO1)c1ccccc1-c1nc(-c2ccccc2)no1 (stereo not given) | inconclusive: 1.4 nM
CNC(=O)NC(=O)CSc1ncc(C(F)(F)F)cc1Cl | inconclusive: 1.1 nM
CC(=O)Nc1ccccc1OCc1nnc(-c2cccs2)o1 | inconclusive: 1.4 nM
CCOC(=O)Cc1csc(NC(=O)CSc2nnc(-n3nc(C)cc3C)c3ccccc23)n1 | inactive
O=C(NCCN1CCOCC1)c1cccs1 | inconclusive: 1.3 nM
Cc1ccc(NC(=O)CSc2nc3nc(C)cc(C)c3c(=O)[nH]2)cc1 | inconclusive: 1.1 nM
CC(=O)N1CCC(C(=O)Nc2ccccc2)(N(Cc2ccccc2)C(=O)c2cccnc2)CC1 | inconclusive: 1.3 nM
Cc1ccc(NC(=O)CCSc2nnc(-c3ccco3)o2)cc1 | inconclusive: 1.4 nM
CCOCCCn1c(=S)[nH]c2cc(C(=O)NCCN(CC)CC)ccc2c1=O | inconclusive: 2.2 nM
Cc1ccccc1C(NC(N)=O)c1ccccc1 (stereo not given) | inconclusive: 2.4 nM

Next part:

Compound | max dye-equivalent concentration
COc1ccc(S(=O)(=O)NCCSCc2cccs2)cc1 | inconclusive: 1.6 nM
CCOC(=O)C1CCN(C(=O)Cn2cc(C#N)c3ccccc32)CC1 | inactive
O=C(OCc1nc2ccccc2s1)c1cnccn1 | inconclusive: 1.3 nM
COc1ccc(CNc2oc(-c3cccc4ccccc34)nc2C#N)cc1 | inconclusive: 1.3 nM
O=C(Cn1nc(-c2ccc(Cl)cc2)ccc1=O)NCCCN1CCN(Cc2ccccc2)CC1 | inconclusive: 1.1 nM
COc1cc(C(=O)NCCc2ccc(S(N)(=O)=O)cc2)cc(OC)c1OC | inconclusive: 1.4 nM
COc1ccc(S(=O)(=O)N2CCCC2C(=O)Nc2nccs2)cc1 (stereo not given) | inconclusive: 2.4 nM
O=C(c1cccc(F)c1)N1CCC2(CC1)CN(c1ccc(-c3ccccc3)cc1)C2 | inactive
CCCn1nc(-c2ccccc2)c2nc3ccccc3nc21 | inactive
CN(C)/C=N/c1cnc(C(=O)c2ccc(Cl)cc2)n1C | inconclusive: 1.8 nM
CC(C)(C)OC(=O)c1c(N)n(CCCN2CCCC2=O)c2nc3ccccc3nc12 | inconclusive: 1.1 nM
CC1CCN(C(=O)CSc2ccc3nnc(-c4ccc(F)cc4)n3n2)CC1 | inconclusive: 1.3 nM
CN(C)Cc1nc2ccccc2c(=O)n1Cc1nc(-c2cc3ccccc3o2)cs1 | inconclusive: 1.5 nM
Cc1cc(C(=O)Nc2sc3c(c2C#N)CCCCC3)cs1 | inconclusive: 3.3 nM
CCn1c(SCC(=O)Nc2nc3ccc(OC)cc3s2)nnc1-c1ccoc1C | inconclusive: 1.5 nM
CCCCn1c2nc3ccccc3nc2c2c(=N)oc(C)nc21 | inconclusive: 3.5 nM
CC(C)(C)NC[C@@H](O)COc1ccccc1C1CCCC1 | inconclusive: 2 nM
COc1ccc(C(C)C)cc1S(=O)(=O)Nc1ccc(Cl)cn1 | inconclusive: 1.3 nM
CC1Cc2cc(/C(O)=C3\C(=O)C(=O)N(CCN4CCOCC4)C3c3ccccc3F)ccc2O1 (stereo not given) | inactive
COc1cc(N2CN=c3s/c(=C\c4ccccn4)c(=O)n3C2)cc(OC)c1OC | inconclusive: 1.3 nM
CCC(=O)N1c2ccc(S(=O)(=O)CCC(=O)NCCC3=CCCCC3)cc2CC1C (stereo not given) | inconclusive: 1.1 nM
COc1cccc(C2/C(=C(\O)c3ccc4c(c3)OCO4)C(=O)C(=O)N2CCN(C)C)c1OC (stereo not given) | inconclusive: 1.9 nM

Taken from above.
max dye-equivalent concentration with CCCn1nc(-c2ccccc2)c2nc3ccccc3nc21 reads inactive
max dye-equivalent concentration with CC(C)(C)NC[C@@H](O)COc1ccccc1C1CCCC1 reads inconclusive: 2 nM

(more compounds)

Compound | max dye-equivalent concentration
N#CC1=C(N)n2c(s/c(=C\c3ccco3)c2=O)=C(C#N)C1c1ccco1 (stereo not given) | inconclusive: 1.1 nM
O=C(c1cc2ccccc2oc1=O)N1CCCC1 | inconclusive: 1.2 nM
C=CCSC[C@@H]1Nc2cc(Cl)c(S(N)(=O)=O)cc2S(=O)(=O)N1 | inactive
COc1ccc(Cn2c(CCC(=O)O)nc3cccnc32)cc1 | inconclusive: 1.3 nM
Cc1ccc(NCc2nnc(SCC(=O)NCc3ccco3)n2CC2CCCO2)cc1Cl (stereo not given) | inconclusive: 1.2 nM
CCCC(=O)Nc1ccc(C(=O)NCCCn2ccnc2)cc1 | inconclusive: 1.3 nM
Cc1ccc(S(=O)(=O)NCCn2c(C)cc3ccccc32)cc1 | inconclusive: 1.1 nM
Cc1ccc(-c2c3c(=O)n(C)c(=O)n(C)c3cn2-n2cnnc2)cc1 | inconclusive: 1.1 nM
Cn1c(=O)c2c(nc(SCCN3CCOCC3)n2Cc2ccc(F)cc2)n(C)c1=O | inconclusive: 1.2 nM
CCOC(=O)c1n[nH]c2ccccc12 | inactive
CCOC(=O)C1=C(C)NC(=O)NC1/C=C/c1ccccc1 (stereo not given) | inconclusive: 2.5 nM
Cc1cc(C(N)=O)c2ccccc2n1 | inconclusive: 1.3 nM
Cc1ccc(C)c(NC2=CC(=O)CC(C)(C)C2)c1C#N | inconclusive: 2.4 nM
Cc1cc(N(C)C)c(C#N)c(NCc2ccccc2)n1 | inconclusive: 1.2 nM
COc1ccc(NC(=O)[C@@H]2[C@@H]3C(=O)N(C4CCCCC4)C(=O)[C@@H]3C3c4ccccc4C=CN32)cc1 (stereo not given in full) | inactive
COc1ccc2nc(SCC(=O)Nc3ccc(S(=O)(=O)Nc4onc(C)c4C)cc3)[nH]c2c1 | inconclusive: 1.8 nM
COC(=O)C1(C)NC(c2cccs2)C2C(=O)N(c3ccccc3F)C(=O)C21 (stereo not given) | inconclusive: 1.1 nM
CCC(Sc1ccc2nnc(-c3ccc(F)cc3)n2n1)C(=O)OC (stereo not given) | inconclusive: 1.9 nM
Cc1ccc(S(=O)(=O)NCC(=O)N(CC(=O)NC2CCCCC2)Cc2ccco2)cc1 | inconclusive: 2 nM
